Among the data in publication PMC10810426 are binding values, retold here.

The target in experiment [1] is T1, NUP62 (mouse (endogenous in NIH3T3 and BMDCs)) (UniProt Q63850).
T1 sequence: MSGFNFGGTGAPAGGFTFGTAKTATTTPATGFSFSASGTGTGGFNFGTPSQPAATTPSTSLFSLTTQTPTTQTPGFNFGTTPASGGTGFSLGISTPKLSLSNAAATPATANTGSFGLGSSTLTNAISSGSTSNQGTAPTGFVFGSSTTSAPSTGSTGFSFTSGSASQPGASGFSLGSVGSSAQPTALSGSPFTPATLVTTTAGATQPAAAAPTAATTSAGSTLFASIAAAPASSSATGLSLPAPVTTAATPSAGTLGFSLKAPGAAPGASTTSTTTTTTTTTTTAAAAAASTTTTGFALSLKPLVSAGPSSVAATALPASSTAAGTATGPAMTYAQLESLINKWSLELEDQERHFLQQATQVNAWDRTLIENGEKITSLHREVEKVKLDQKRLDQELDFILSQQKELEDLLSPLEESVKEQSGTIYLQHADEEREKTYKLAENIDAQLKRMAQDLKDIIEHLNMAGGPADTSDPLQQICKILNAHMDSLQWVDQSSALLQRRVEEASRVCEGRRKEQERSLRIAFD
Description: proximity ligation; Duolink PLA with anti-MLV CA (p30, R187) and anti-NUP358 or anti-NUP62 antibodies in BMDCs infected with MLV (MOI = 1) at 4 hpi; fixed, permeabilised cells.

The target in experiment [2] is T1, NUP62 (mouse (endogenous in NIH3T3 and BMDCs)). Put plainly: proximity ligation; Duolink PLA with anti-MLV CA (p30, R187) and anti-NUP358 or anti-NUP62 antibodies in NIH3T3 cells infected with MLV (MOI = 1) at 4 hpi; fixed, permeabilised cells.

No constants are given. Whether binding was seen depends on the method and setting. Binding seen in cells or lysates may run through a third protein. Binding can be weak; no strength is given.

Consider “Moloney MLV capsid (CA) of incoming virus”, for which the binding result in experiment [1] and in experiment [2] was “binds” in each case.
